Results as given in ChEMBL document CHEMBL5728042, “Selective androgen receptor degrader (SARD) ligands and methods of use thereof” (2020).

Target: T1, Androgen receptor (Homo sapiens, UniProt P10275)
T1 sequence (P10275 whole entry): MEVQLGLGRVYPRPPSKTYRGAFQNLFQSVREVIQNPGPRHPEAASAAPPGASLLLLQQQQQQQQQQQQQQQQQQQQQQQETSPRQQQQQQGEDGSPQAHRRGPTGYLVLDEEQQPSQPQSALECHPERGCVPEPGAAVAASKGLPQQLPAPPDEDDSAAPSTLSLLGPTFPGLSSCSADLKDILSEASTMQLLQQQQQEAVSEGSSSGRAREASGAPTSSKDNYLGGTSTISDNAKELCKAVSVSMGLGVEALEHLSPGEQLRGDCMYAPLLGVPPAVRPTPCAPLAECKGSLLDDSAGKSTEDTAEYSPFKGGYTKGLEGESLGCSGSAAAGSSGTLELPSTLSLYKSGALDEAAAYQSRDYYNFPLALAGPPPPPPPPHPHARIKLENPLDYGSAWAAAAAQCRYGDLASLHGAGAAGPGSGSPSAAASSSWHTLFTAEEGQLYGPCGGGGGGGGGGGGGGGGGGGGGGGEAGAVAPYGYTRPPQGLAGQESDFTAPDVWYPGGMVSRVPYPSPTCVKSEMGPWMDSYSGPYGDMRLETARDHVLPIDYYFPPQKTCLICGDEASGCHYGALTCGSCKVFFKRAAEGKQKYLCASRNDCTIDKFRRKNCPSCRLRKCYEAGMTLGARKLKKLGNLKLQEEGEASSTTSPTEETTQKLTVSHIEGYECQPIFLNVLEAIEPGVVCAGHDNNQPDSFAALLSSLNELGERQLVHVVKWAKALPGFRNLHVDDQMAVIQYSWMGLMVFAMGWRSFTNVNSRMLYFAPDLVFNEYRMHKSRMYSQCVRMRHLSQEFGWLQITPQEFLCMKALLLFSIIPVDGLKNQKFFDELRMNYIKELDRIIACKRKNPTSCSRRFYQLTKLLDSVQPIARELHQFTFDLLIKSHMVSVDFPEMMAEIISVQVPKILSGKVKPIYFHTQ

Q: CC(=O)Nc1ccc(N2C(=S)N(c3ccc(C#N)c(C(F)(F)F)c3)C(=O)C23CCC3)cc1F was tested. Which Ki did it give?
A: Its Ki is 1450 nM.
